# Measurements from article PMC3006138, “Fexinidazole – A New Oral Nitroimidazole Drug Candidate Entering Clinical Development for the Treatment of Sleeping Sickness” (PLoS Neglected Tropical Diseases, 2010).
# Assay: Caco-2 permeability
# Details: human
# Protocol: Caco-2 [36] or MDR1-MDCK (Madin Darby canine kidney cells transfected with the human multidrug resistance MDR1 gene) cell monolayers were grown to confluence on collagen-coated, microporous, polycarbonate membranes in 12-well microtitre plates. The buffer for the donor chamber was Hanks balanced salt solution with 10 mM HEPES and 15 mM glucose at pH 7.4. The buffer in the receiver chamber contained the same with the addition of 1% bovine serum albumin (BSA). The test article was added at 5 µM in the assay buffer. […] After 2 h, duplicate aliquots were taken from the donor and receiver chambers and assayed via LC/MS. The apparent permeability and recovery were calculated using standard methods.
# The objective of this study was to determine the bi-directional Caco-2 permeability and efflux limited absorption poten tial of thr ee test compoun ds. […]
# 4 . […] Th e test compound dosing concentrations were 5 µM in th e a ssay bu f fer . […] After two hours, a l iquot s wer e t a ken fr om th e r ecei ver an d don or cha m ber s. E a ch det erm ina ti on wa s per for m ed in dupl i cat e. […] Analytical conditions are outlined in Attachment I. The apparent permeability, Papp, and per cen t r ecover y wer e calculated as follows: […]
structure (smiles),measurement,value
"CC(C)NCC(O)COc1ccc(CC(N)=O)cc1 (stereo not shown) [Atenolol, reference compound]",Papp,0.26 ×10⁻⁶ cm/s
